Among the data in PubChem BioAssay AID493014 (National Center for Advancing Translational Sciences (NCATS), 2011) are AC50 values, retold here.

As usually defined, the AC50 is the concentration at which the activity in the assay is half-maximal.

Where “and” joins values, the source holds several entries; their conditions need not be identical. Equal entries are not always repeated. The list shows a part of the results. Shown are side measurements of this screen, not its main read-out; they come without a call. Compounds called inactive in the main read-out are mostly missing here. Potencies come from curve fits of mixed quality, noted in brackets.

The experiment can be described thus: qHTS Assay to Find Inhibitors of Chronic Active B-Cell Receptor Signaling. The following applies: ABC-DLBCL IkBa-CBG/CBR reporter, luminescence ratio (green luciferase fused to IkBa over red control in TMD8 lymphoma cells), 4 h. The gist of the method:
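TMD8 ABC-DLBCL cells carrying doxycycline-inducible green luciferase fused to IkappaBalpha plus unfused red luciferase were exposed to compounds (up to 46 uM) for 4 hrs at 37C. Activity came from the overlap-corrected green/red luminescence ratio.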
On the technique in general: qHTS replaces the single test concentration by a dilution series.

[1] abbreviates: measured here: CBR red luminescence, cell number.
[2] abbreviates: measured here: IkBa-CBG green luminescence.

In the case of `Nc1nc2ccc(OC(F)(F)F)cc2s1`, the half-maximal activity concentration (AC50) under setting [1] is 35.5 µM [rising, single point] and 20.6 µM [rising, partial curve].
The same measure, in the same setting: the value for `N#Cc1cccc(NC(=O)CSc2ccc3c4c(cccc24)C(=O)c2ccccc2-3)c1` was 2.06 µM [falling, full curve, poor fit].
Same read-out and setting: the value for `Cc1cc(OCC(=O)c2ccc(F)cc2)ccc1N1C(=O)CCC1=O` was 3.26 µM [rising, partial curve, poor fit].
For `Cc1cccc(CCNC(=O)c2cc(S(=O)(=O)N3CCCC3)cn2C)c1`, the AC50 under setting [2] was 35.5 µM [rising, partial curve, poor fit].
For the molecule `O=C(N/N=C/c1ccc[nH]1)c1cccc([N+](=O)[O-])c1`, under setting [1], the AC50 was 16.4 µM [falling, single point].
Turning to `Cc1ccc(-c2c3c(=O)n(C)c(=O)n(C)c3cn2-c2ccccc2O)cc1`, the half-maximal activity concentration (AC50) under setting [1] is 15.8 µM [falling, partial curve, poor fit].
The same measure, in the same setting: the result for `COc1ccc2cnnc(SCC(=O)Nc3ccc(C(=O)O)cc3)c2c1OC` reads 29.1 µM [falling, single point]; that for `Cc1nc(-c2ccccc2)sc1-c1ccnn1C`, 0.447 µM [rising, full curve]; that for `CCn1c(SCC(=O)NCCc2ccc(Cl)cc2)nnc1-c1cccs1`, 29.1 µM [falling, single point].
The same measure, in the same setting: the value for `COC(=O)[C@H](Cc1ccccc1)NC(=O)c1ccc2ccccc2n1` was 5.62 µM [rising, full curve, poor fit].
Still for that read-out and setting: the value for `O=[N+]([O-])c1ccc(N/N=C/c2ccccc2O)cc1` was 35.5 µM [falling, single point]; that for `Cc1cc(=O)oc2c1ccc1oc(/C(=N/O)c3ccccc3)c(C)c12` was 6.51 µM [falling, partial curve]; that for `COc1cc(C(=O)NCC(=O)N2CCN(S(=O)(=O)c3ccccc3C(F)(F)F)CC2)cc(OC)c1OC` was 0.651 µM [rising, partial curve, poor fit].
Take `O=C(NNC1=C(C(=O)C(F)(F)F)CCC1)c1ccccc1O`: the AC50 under setting [1] is 7.31 µM [falling, partial curve].
Same read-out and setting: the result for `COc1ccc(CNC(=O)C(c2ccc(C)o2)N(C(=O)c2snc(C(N)=O)c2N)c2ccccc2OC)cc1` (configuration not stated) reads 3.16 µM [rising, single point].
Turning to `Cc1ccccc1C(=O)N1CC(=O)Nc2ccc(F)cc2C1c1ccc(F)cc1` (configuration not stated), the AC50 under setting [1] is 7.94 µM [falling, partial curve].
Still for that read-out and setting: the result for `COc1ccc(C(CNC(=O)Nc2ccc(Cl)cc2)N2CCN(C)CC2)cc1` (configuration not stated) reads 6.31 µM [rising, single point]; that for `CCn1c(SCC(=O)O)nnc1-c1ccccc1OC`, 8.91 µM [falling, partial curve, poor fit]; that for `CCc1ccc(OCC(=O)Nc2ccncc2)c(Br)c1`, 2.24 µM [rising, partial curve, poor fit].
As for `Oc1ccccc1-c1cc(-c2cccc(F)c2)n[nH]1`, under setting [1], the AC50 was 8.91 µM [falling, partial curve].
For the molecule `O=C(Nc1nc2ccccc2n1CCN1CCCC1)c1ccc(Cl)cc1`, the AC50 under setting [1] was 35.5 µM [falling, single point].
On the same count and under the same terms, the result for `O=C(NNC(=S)NC(=O)c1cccnc1)c1ccc(Cl)cc1` reads 12.6 µM [falling, single point]; that for `Cc1cccc2cc(CN(C(=O)c3cccs3)c3ccccc3)c(=O)[nH]c12`, 0.13 µM [rising, full curve, poor fit]; that for `CC(=O)Nc1ccccc1-c1nn[nH]n1`, 29.1 µM [falling, single point].
Still for that read-out and setting: the result for `Cc1ccc(-n2c(C)cc(/C=N/Nc3ccc([N+](=O)[O-])cn3)c2C)c(C)c1` reads 11.2 µM [rising, partial curve]; that for `CC(C)NC(=O)c1nc2ccccc2s1`, 25.9 µM [falling, single point].
With `Cc1cccc(NC(=O)c2nc(S(C)(=O)=O)ncc2Cl)c1`, the AC50 under setting [1] is 4.47 µM [falling, full curve] and the concentration at half-maximal activity (AC50) under setting [2] was 2.82 µM [rising, full curve, poor fit].
For the molecule `CCOC(=O)C1(Cc2cccc(F)c2)CCN(Cc2cnc(C)s2)CC1`, under setting [1], the concentration at half-maximal activity (AC50) was 11.2 µM [falling, partial curve, poor fit].
Still for that read-out and setting: the value for `Cc1cccc(NC(=O)CSc2nc(-c3ccco3)nc3cc(=O)[nH]n23)c1` was 29.1 µM [falling, partial curve, poor fit]; that for `Cc1ccc2oc(-c3cccc(NC(=O)c4ccc(Br)o4)c3C)nc2c1` was 5.8 µM [falling, full curve]; that for `O=C(Nc1ccc(F)cc1)c1c(Cl)nc2ccccn12` was 3.98 µM [rising, single point].
The same measure, in the same setting: the value for `NS(=O)(=O)c1ccc(CCNCc2cc(Cl)ccc2OCc2ccccc2)cc1` was 12.6 µM [falling, single point]; that for `O=C(N/C(=C\c1cn(-c2ccccc2)nc1-c1ccc(Cl)cc1)C(=O)N1CCOCC1)c1ccccc1` was 29.1 µM [rising, single point].
As for `Cc1ccc(C)c(C2NC(=O)c3ccccc3N2)c1` (configuration not stated), the AC50 under setting [1] is 0.316 µM [falling, full curve, poor fit].
The same measure, in the same setting: the value for `COc1ccc(NC(=O)CC2CCCC2)cc1S(=O)(=O)N1CCCCC1` was 6.51 µM [rising, single point]; that for `O=C(c1ccccc1Sc1cccc2ccccc12)N1CCOCC1` was 2.06 µM [rising, full curve, poor fit].
Same read-out and setting: the result for `NNC(=O)CN1C(c2ccccc2)=Nc2ccc(Br)cc2C1c1ccccc1` (configuration not stated) reads 12.6 µM [falling, single point]; that for `Cc1c(OCc2ccc([N+](=O)[O-])cc2)ccc2c3c(c(=O)oc12)CCC3`, 29.1 µM [rising, single point].
With `COc1cccc(CN(C)C(=O)c2ccccc2Sc2ccccc2C#N)c1OC`, the half-maximal activity concentration (AC50) under setting [1] was 4.47 µM [falling, full curve].
On the same count and under the same terms, the value for `CCCOc1ccc(N/C=C/C(=O)C(C)(C)C)cc1` was 12.6 µM [rising, single point]; that for `COc1ccc(C(=O)n2nc(-c3ccccc3)nc2N)cc1OC` was 0.794 µM [falling, full curve, poor fit].
